For at least one compound, name, drawing or mass did not settle the structure.
System: G6PDH (glucose 6 phosphate dehydrogenase)
Test: G6PDH activity on human dermal fibroblasts
Type: cell-based
Settings: summary in words
Source text: This test was used to determine stimulation of the enzyme G6PDH (glucose 6 phosphate dehydrogenase) which counteracts the ageing process of human skin. G6PDH catalyzes the first step of the “pentose shunt” (also known as hexose monophosphate shunt or HMP shunt). The first step, the transformation of glucose-6-phosphate (G6P) into 6-phosphogluconate (6GP) by G6PDH, needs the coenzyme NADP which in turn is converted into NADPH2. This reduced form of the coenzyme catalyzes many enzymatic reactions and also glutathione recycling and lipid synthesis.
Determination of the G6PDH activity (glucose 6 phosphate dehydrogenase) was carried out by the microprocess described by Garidelli de Quincenet in Annual Dermatol. Venereol. 107 (12), 1163-1170 (1980). The DNA content was determined by the method described by Desaulniers in Toxic. In vitro 12 (4), 409-422 (1998) using in vitro cultures of human dermal fibroblasts. […]

## CC1=C(/C=C/C(C)=C/C=C/C(C)=C/C(=O)O)C(C)(C)CCC1 [Retinoic acid]
  G6PDH activity in human fibroblasts: clearly increased
